PubChem BioAssay AID1224828, NIAID, 2016
Test: 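Knock-downs that increase or decrease LPS-induced p65 nuclear translocation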 (primary screen). Cells: mouse RAW264.7 G9 macrophage reporter cells (GFP-p65, Tnf promoter-mCherry). Knock-down reagent: siRNA pool against mouse genes, 100 nM. Time to read-out: 2 days siRNA transfection, then 40 min LPS before fixation. Conditions: LPS (Salmonella minnesota R595) at 10 ng/ml. Detection: 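Imaged p65 nuclear translocation ratio, normalised to the plate median, converted to robust z-scores and averaged across two replicates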. Direction: p65 translocation robust z-score: higher = more nuclear NF-kappaB p65 after LPS than the plate median; nuclear/cytoplasmic p65 ratio: higher = more nuclear NF-kappaB p65. Hit rule: 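Active if robust z is above 3.3 (negative regulators) or below -1.56, the Tlr4 control median (positive regulators); activity score 50 or more; control wells not called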. Meaning of the calls: active = hit (p65 shift raised or lowered); inactive = no clear change.
In all, the deposit lists about 17,000 reagents; shown is a random part of them. In the full data, 762 (4.5%) are marked active. 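Active calls include both raised and lowered p65 entry, mostly lowered; wells with fewer than 50 cells lack a z-score.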 The raw values are shown without normalisation.

Against Krit1, the values are p65 translocation robust z-score -0.48; nuclear/cytoplasmic p65 ratio, rep 1 = 1.34; nuclear/cytoplasmic p65 ratio, rep 2 = 1.38; low cell count flag enough cells to score; inactive.
For Acrbp, the entry reads p65 translocation robust z-score -0.71; nuclear/cytoplasmic p65 ratio, rep 1 = 1.46; nuclear/cytoplasmic p65 ratio, rep 2 = 1.62; low cell count flag enough cells to score; inactive.
Knock-down of Flt3l resulted in: p65 translocation robust z-score 1.23; nuclear/cytoplasmic p65 ratio, rep 1 = 1.61; nuclear/cytoplasmic p65 ratio, rep 2 = 1.51; low cell count flag enough cells to score; inactive.
For Hdhd3, the entry reads p65 translocation robust z-score -1.43; nuclear/cytoplasmic p65 ratio, rep 1 = 1.42; nuclear/cytoplasmic p65 ratio, rep 2 = 1.38; low cell count flag enough cells to score; inactive.
Adk showed p65 translocation robust z-score 0.25; nuclear/cytoplasmic p65 ratio, rep 1 = 1.71; nuclear/cytoplasmic p65 ratio, rep 2 = 1.42; low cell count flag enough cells to score; inactive.
With knock-down of 4921509C19Rik, the record shows nuclear/cytoplasmic p65 ratio, rep 1 = 1.22; nuclear/cytoplasmic p65 ratio, rep 2 = 1.28; low cell count flag fewer than 50 cells per well; well left out of scoring; inactive.
After knock-down of Gstcd, the record shows p65 translocation robust z-score 0.12; nuclear/cytoplasmic p65 ratio, rep 1 = 1.36; nuclear/cytoplasmic p65 ratio, rep 2 = 1.5; low cell count flag enough cells to score; inactive.
Knock-down of Chst11 came out at: p65 translocation robust z-score -0.72; nuclear/cytoplasmic p65 ratio, rep 1 = 1.55; nuclear/cytoplasmic p65 ratio, rep 2 = 1.6; low cell count flag enough cells to score; inactive.
Ceacam11 gave p65 translocation robust z-score 1.12; nuclear/cytoplasmic p65 ratio, rep 1 = 1.68; nuclear/cytoplasmic p65 ratio, rep 2 = 2.06; low cell count flag enough cells to score; inactive.
Vmn1r46 gave p65 translocation robust z-score -0.77; nuclear/cytoplasmic p65 ratio, rep 1 = 1.17; nuclear/cytoplasmic p65 ratio, rep 2 = 1.25; low cell count flag enough cells to score; inactive.
For A630038E17Rik the deposit lists p65 translocation robust z-score 3.3; nuclear/cytoplasmic p65 ratio, rep 1 = 1.5; nuclear/cytoplasmic p65 ratio, rep 2 = 1.99; low cell count flag enough cells to score; inactive.
For Spink4 the deposit lists p65 translocation robust z-score 0.04; nuclear/cytoplasmic p65 ratio, rep 1 = 1.48; nuclear/cytoplasmic p65 ratio, rep 2 = 1.19; low cell count flag enough cells to score; inactive.
Tas2r108 scored p65 translocation robust z-score -1.7; nuclear/cytoplasmic p65 ratio, rep 1 = 1.23; nuclear/cytoplasmic p65 ratio, rep 2 = 1.38; low cell count flag enough cells to score; active.
Silencing of Smad2 resulted in: p65 translocation robust z-score 0.78; nuclear/cytoplasmic p65 ratio, rep 1 = 1.75; nuclear/cytoplasmic p65 ratio, rep 2 = 1.58; low cell count flag enough cells to score; inactive.
Pla2g10 gave p65 translocation robust z-score 1.42; nuclear/cytoplasmic p65 ratio, rep 1 = 1.47; nuclear/cytoplasmic p65 ratio, rep 2 = 1.8; low cell count flag enough cells to score; inactive.
After knock-down of Arpc5 the results were p65 translocation robust z-score -0.61; nuclear/cytoplasmic p65 ratio, rep 1 = 1.36; nuclear/cytoplasmic p65 ratio, rep 2 = 1.58; low cell count flag enough cells to score; inactive.
Hoxaas2 showed p65 translocation robust z-score -0.85; nuclear/cytoplasmic p65 ratio, rep 1 = 1.21; nuclear/cytoplasmic p65 ratio, rep 2 = 1.4; low cell count flag enough cells to score; inactive.
For Plppr2, the values are p65 translocation robust z-score 0.22; nuclear/cytoplasmic p65 ratio, rep 1 = 1.62; nuclear/cytoplasmic p65 ratio, rep 2 = 1.87; low cell count flag enough cells to score; inactive.
With knock-down of Pax6, the screen gave nuclear/cytoplasmic p65 ratio, rep 1 = 1.21; nuclear/cytoplasmic p65 ratio, rep 2 = 1.07; low cell count flag fewer than 50 cells per well; well left out of scoring; inactive.
After knock-down of Nadk, the screen gave p65 translocation robust z-score 0.1; nuclear/cytoplasmic p65 ratio, rep 1 = 1.71; nuclear/cytoplasmic p65 ratio, rep 2 = 1.4; low cell count flag enough cells to score; inactive.
With knock-down of Creb3l2, the record shows p65 translocation robust z-score -0.31; nuclear/cytoplasmic p65 ratio, rep 1 = 1.38; nuclear/cytoplasmic p65 ratio, rep 2 = 1.49; low cell count flag enough cells to score; inactive.

2 neighbouring entries from above, quoted:
Tas2r108 — p65 translocation robust z-score: -1.7; nuclear/cytoplasmic p65 ratio, rep 1: 1.23; nuclear/cytoplasmic p65 ratio, rep 2: 1.38; low cell count flag: enough cells to score; call: active
Smad2 — p65 translocation robust z-score: 0.78; nuclear/cytoplasmic p65 ratio, rep 1: 1.75; nuclear/cytoplasmic p65 ratio, rep 2: 1.58; low cell count flag: enough cells to score; call: inactive
